The exact form of at least one protein or probe is not confirmed. For part of these data: A negative result means that nothing was seen under these conditions. For part of these data: At least one verdict rests on a figure or table, not on a statement of the authors. Where a protein sequence is shown, tags need not be part of it. For part of these data: Whether high values mean tight binding is not given here for every scale.
What was measured:
ZNF143 DBD [1] = molecular target: T1, ZNF143 DBD (UniProt P52747); assay: competition with a labelled probe; details: labeled BUB1B optimal probe, negative control; competition: 20 min preincubation at room temperature, 10 uL; competitor excess 200-fold (Methods) or 1000-fold (Fig 2E legend); recombinant protein; letters put together from the description
T1 sequence (looked up, limits assumed): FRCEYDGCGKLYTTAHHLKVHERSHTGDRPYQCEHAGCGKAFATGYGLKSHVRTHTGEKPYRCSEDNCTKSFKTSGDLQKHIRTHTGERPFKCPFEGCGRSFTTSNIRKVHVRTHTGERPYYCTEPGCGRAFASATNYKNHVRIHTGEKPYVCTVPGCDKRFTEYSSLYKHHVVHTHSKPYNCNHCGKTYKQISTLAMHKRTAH

ZNF143 DBD [2] = molecular target: T1, ZNF143 DBD; assay: competition EMSA; details: labeled BUB1B optimal probe; 20 fmol 32P probe; 4% native PAGE in 0.25x TBE; recombinant protein; label: 5' 32P (unlabeled as competitor); scale: fold weaker than BUB1B optimal site

Sequence | binding result (ZNF143 DBD [1]) | binding signal (ZNF143 DBD [2])
CCGCGAACTCGCGGTGCATAAGTTTAAGGTCTGTTTTTGCC (double strand) [unspecific competitor] | no binding | 
TTTTACCCAGTGTGCATTATTCTCC (double strand) [SBS/C] |  | 18
TGTCCTGGTGCATGGTGGTCGGA (double strand) [SBS/B] |  | 80

From PMC3936768, “Transcription factor abundance controlled by an auto-regulatory mechanism involving a transcription start site switch”
